These results are taken from paper doi:10.1101/2023.03.28.534543.

Protein sequences, listed by entry. Tags and fused reporters are not part of them. Lines headed by an entry give the natural chain unless they say otherwise; changes in a name come on top.
UniProt D4H036: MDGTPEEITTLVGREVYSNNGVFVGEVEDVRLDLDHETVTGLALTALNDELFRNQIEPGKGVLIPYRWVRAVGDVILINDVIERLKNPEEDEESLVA
UniProt D4GTJ3: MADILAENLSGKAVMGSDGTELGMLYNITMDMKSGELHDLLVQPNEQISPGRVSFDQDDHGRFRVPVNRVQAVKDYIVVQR

Test [1] deals with CdpB1 from Haloferax volcanii (Haloferax volcanii) (UniProt D4H036). Kind of test: SEC-MALS.
For test [2] the target is unchanged. Kind of test: SEC-MALS. The source holds these as a separate data set.

Read-outs that look alike come from different tables or passages of the source. These are yes or no findings as the source states them, for the method shown. Binding can be weak; no strength is given.

As to “CdpB2 from Haloferax volcanii (from UniProt D4GTJ3)”, the binding result in test [1] and in test [2] was “binds” throughout.
